Reference: PMC5014551
Results are given in words; binding and its absence hold for the method and conditions named.

Sequences of proteins named here, by UniProt entry; tags and fusion partners are left off. Residues count along the entry.
UniProt Q6P4F2, residues 53-183: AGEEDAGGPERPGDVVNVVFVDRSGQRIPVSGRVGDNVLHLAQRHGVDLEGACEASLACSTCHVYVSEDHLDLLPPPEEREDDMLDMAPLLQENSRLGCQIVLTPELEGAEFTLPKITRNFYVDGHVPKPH

Key:
[1] = molecular target: T1, recombinant human BOLA3, fluorescently labelled (human) (UniProt Q53S33); test: condition: 200 µM (highest concentration of the titration, methods); MST; 200 nM NT-647 labelled protein titrated with unlabelled protein from 200 µM to 6.1 nM; 50 mM KPi pH 7.4, 150 mM NaCl, 5% glycerol, 0.05 mg/mL BSA, 0.05% Tween20; 21°C; anaerobic; both purified
T1 sequence (chain, NT-647 dye (Monolith NT Protein Labeling Kit RED)): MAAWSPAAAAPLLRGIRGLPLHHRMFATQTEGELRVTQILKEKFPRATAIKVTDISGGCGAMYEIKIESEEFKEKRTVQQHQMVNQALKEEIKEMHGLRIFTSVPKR

[2] = molecular target: T2, recombinant human BOLA1, fluorescently labelled (human) (UniProt Q9Y3E2); test: as above
T2 sequence (chain, NT-647 dye (Monolith NT Protein Labeling Kit RED)): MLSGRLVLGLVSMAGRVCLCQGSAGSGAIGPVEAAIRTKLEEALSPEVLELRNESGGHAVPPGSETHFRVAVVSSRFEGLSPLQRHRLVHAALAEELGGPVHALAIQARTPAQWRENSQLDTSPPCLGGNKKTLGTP

binding [1]: no binding | binding [2]: no binding
Substance: human [2Fe-2S] ferredoxin FDX2 (from UniProt Q6P4F2 53-183)
